Paper PMC13304329

Amino acid sequences for entries named in this document (tags omitted). Residues count along the entry.
UniProt Q5S007: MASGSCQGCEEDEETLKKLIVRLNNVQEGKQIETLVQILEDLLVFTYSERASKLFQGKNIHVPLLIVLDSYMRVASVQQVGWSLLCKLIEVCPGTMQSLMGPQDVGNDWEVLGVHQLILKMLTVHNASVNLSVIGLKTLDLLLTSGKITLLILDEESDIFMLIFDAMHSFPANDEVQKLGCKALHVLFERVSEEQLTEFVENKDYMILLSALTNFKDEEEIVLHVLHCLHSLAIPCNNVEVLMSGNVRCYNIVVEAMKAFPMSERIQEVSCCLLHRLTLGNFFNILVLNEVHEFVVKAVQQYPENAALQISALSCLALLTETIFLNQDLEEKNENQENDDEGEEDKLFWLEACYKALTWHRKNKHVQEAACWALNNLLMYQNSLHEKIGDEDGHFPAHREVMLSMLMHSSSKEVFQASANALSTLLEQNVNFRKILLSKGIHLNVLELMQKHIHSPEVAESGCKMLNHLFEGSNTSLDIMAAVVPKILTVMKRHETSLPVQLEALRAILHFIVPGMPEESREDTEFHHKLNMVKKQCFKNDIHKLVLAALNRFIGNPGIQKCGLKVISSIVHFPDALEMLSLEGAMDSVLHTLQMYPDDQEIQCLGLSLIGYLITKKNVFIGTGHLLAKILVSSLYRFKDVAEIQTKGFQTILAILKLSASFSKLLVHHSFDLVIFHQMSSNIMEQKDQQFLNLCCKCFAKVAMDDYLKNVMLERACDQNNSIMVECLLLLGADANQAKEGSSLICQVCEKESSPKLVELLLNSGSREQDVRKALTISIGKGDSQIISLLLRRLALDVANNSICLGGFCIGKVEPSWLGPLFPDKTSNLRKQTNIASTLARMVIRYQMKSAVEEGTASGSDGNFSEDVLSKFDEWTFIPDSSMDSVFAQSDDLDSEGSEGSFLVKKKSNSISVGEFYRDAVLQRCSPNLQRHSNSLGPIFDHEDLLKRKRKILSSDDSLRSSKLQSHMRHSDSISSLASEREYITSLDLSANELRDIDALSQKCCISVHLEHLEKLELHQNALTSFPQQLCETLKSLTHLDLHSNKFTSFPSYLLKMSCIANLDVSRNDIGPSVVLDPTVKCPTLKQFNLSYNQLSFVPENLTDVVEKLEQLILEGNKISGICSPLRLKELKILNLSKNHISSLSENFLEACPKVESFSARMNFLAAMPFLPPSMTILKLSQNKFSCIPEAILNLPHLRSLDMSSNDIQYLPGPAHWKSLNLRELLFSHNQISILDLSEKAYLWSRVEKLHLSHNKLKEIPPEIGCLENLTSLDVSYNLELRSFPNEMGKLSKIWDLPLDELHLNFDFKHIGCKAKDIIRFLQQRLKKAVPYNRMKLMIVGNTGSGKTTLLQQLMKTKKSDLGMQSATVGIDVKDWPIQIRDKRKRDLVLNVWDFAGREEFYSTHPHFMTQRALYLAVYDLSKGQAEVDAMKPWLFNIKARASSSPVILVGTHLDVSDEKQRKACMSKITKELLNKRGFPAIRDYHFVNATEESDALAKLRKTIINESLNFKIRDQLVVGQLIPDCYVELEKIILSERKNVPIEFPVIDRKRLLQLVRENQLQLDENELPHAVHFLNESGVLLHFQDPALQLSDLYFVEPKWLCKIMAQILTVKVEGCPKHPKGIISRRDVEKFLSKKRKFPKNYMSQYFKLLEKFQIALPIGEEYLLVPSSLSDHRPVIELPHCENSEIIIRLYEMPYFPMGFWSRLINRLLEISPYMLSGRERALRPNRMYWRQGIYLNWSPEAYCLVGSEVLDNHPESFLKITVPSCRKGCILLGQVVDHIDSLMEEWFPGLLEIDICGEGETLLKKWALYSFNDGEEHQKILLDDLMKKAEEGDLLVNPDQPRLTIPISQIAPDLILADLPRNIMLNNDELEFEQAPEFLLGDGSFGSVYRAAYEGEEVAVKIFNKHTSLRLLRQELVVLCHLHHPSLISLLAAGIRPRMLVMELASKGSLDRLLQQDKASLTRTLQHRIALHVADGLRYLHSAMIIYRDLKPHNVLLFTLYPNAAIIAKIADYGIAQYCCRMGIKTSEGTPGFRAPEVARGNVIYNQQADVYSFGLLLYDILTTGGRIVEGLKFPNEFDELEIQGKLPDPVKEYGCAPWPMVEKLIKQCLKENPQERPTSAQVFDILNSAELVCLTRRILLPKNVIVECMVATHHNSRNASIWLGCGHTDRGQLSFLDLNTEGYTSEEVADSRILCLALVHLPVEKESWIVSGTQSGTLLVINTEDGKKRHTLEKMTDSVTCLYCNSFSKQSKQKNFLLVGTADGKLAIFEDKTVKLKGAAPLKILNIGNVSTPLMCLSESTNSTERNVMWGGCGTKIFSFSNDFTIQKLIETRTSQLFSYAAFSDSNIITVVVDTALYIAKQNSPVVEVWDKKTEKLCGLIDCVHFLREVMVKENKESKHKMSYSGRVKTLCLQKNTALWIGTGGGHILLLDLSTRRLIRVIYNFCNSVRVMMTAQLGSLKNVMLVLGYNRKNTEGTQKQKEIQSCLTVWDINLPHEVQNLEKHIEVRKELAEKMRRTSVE
UniProt Q9UIQ6: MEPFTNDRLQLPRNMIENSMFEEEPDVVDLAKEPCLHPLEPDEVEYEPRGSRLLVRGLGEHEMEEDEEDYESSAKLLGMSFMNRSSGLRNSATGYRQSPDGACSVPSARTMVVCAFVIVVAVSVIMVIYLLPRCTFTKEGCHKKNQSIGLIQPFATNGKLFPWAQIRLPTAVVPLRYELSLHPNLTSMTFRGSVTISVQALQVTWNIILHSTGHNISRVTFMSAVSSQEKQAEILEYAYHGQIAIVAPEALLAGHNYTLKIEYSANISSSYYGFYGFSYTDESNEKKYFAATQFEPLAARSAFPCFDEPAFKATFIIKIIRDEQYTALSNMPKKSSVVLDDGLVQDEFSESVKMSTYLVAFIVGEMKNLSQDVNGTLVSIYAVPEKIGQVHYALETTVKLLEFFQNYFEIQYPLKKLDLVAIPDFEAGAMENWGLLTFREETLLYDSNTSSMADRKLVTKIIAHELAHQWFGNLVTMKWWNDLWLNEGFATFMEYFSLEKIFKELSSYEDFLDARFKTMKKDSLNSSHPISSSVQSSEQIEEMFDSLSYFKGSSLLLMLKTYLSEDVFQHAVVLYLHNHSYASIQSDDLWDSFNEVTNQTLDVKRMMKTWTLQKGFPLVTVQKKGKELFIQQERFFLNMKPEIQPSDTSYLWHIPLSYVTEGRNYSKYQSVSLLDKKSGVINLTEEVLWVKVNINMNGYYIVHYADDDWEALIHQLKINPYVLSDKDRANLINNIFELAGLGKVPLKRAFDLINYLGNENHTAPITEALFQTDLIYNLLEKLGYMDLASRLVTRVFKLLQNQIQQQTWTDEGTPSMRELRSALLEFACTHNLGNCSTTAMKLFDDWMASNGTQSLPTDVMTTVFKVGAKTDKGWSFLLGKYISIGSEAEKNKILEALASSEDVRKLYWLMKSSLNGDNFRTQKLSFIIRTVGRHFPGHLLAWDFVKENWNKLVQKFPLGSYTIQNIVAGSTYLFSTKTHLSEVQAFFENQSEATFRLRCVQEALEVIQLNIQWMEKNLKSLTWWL
UniProt Q6NXT4: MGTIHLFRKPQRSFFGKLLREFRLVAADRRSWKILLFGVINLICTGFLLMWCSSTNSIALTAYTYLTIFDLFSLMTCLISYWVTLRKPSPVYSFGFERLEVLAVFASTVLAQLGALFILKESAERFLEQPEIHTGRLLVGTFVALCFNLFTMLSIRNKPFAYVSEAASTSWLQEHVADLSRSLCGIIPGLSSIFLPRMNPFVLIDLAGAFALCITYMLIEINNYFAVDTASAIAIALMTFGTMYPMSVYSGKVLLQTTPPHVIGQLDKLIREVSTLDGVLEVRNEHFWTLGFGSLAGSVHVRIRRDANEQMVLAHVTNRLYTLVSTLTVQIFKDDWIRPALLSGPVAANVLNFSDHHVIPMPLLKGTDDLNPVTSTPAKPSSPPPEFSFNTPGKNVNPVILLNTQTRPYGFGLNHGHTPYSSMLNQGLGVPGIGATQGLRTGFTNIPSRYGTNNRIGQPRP
UniProt Q14126, residues 50-1118: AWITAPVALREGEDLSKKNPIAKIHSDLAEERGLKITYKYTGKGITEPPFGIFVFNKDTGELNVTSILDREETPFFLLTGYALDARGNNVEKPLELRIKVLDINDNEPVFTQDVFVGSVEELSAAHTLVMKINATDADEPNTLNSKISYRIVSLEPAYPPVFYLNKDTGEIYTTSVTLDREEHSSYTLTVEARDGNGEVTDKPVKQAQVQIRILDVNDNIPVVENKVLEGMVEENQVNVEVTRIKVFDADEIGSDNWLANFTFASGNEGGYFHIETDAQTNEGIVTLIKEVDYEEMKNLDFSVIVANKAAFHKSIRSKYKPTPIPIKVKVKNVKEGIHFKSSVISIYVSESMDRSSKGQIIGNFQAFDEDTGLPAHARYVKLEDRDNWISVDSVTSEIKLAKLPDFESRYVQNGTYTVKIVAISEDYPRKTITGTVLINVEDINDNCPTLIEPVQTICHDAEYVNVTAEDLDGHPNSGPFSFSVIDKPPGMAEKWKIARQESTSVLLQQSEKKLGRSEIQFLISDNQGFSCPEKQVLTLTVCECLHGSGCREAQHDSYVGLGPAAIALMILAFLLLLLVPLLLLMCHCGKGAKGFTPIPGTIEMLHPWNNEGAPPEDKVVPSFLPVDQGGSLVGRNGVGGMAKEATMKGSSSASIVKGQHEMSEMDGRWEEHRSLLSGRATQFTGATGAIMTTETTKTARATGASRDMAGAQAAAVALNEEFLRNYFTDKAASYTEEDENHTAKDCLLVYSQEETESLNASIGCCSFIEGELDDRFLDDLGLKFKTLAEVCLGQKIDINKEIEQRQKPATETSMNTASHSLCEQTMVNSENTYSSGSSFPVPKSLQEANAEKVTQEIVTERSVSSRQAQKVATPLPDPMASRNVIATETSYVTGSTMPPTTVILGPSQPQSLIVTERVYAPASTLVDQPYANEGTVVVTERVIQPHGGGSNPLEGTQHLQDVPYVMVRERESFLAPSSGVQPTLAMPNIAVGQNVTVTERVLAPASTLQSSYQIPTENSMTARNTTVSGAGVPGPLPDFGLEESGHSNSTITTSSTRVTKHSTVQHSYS
UniProt Q04656: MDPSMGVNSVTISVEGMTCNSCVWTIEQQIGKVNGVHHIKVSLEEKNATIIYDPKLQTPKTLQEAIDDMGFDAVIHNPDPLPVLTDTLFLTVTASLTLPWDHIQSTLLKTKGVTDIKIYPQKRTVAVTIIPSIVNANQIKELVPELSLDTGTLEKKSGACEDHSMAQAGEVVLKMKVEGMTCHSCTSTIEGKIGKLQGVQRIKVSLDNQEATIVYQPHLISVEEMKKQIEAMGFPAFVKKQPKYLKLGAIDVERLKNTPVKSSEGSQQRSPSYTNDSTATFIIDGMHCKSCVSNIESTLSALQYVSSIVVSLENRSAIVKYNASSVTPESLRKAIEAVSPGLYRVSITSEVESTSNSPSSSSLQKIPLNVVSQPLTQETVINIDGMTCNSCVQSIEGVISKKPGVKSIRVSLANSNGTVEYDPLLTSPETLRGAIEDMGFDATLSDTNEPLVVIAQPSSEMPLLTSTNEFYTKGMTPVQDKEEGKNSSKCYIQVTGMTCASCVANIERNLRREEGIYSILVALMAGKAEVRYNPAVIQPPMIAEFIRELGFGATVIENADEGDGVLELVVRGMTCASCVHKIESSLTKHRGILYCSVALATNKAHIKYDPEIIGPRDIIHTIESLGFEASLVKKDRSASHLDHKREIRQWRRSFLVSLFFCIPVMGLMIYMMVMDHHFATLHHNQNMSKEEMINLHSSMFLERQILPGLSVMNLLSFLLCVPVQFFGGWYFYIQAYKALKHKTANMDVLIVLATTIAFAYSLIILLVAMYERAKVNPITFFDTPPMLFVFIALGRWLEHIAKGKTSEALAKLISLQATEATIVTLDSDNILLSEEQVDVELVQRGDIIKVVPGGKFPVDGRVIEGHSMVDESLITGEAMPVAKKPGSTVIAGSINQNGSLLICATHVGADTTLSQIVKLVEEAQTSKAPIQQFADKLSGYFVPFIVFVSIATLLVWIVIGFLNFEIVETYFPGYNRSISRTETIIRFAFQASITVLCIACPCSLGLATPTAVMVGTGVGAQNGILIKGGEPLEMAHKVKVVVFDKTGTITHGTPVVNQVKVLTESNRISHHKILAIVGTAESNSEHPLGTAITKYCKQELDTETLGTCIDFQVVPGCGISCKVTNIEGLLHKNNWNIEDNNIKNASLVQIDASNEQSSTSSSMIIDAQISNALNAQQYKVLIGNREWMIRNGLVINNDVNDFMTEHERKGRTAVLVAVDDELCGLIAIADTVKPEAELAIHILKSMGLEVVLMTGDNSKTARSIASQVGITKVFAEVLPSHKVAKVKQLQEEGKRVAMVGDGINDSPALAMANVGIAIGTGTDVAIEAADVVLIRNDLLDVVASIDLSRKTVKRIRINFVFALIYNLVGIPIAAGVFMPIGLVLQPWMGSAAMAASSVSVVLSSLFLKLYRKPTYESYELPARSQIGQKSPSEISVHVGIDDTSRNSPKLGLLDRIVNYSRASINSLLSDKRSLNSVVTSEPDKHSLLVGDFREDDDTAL

Target: miniTurbo-LRRK2 (human) (UniProt Q5S007)
Test: proximity labelling; mT-LRRK2 co-expressed with HA-RAB29 against empty pcDNA3.0 vector; biotin labelling, Strep-Tactin enrichment, LC-MSMS, LFQ with FDR-controlled t test

Row | Molecule | binding
1 | Cation-independent mannose-6-phosphate receptor (from UniProt P11717 41-2491) | binds
2 | Leucyl-cystinyl aminopeptidase; Leucyl-cystinyl aminopeptidase, pregnancy serum form (from UniProt Q9UIQ6 1-1025) (enzyme) | binds
3 | Lamin-B receptor (from UniProt Q14739 1-615) | binds
4 | Nectin-2 (from UniProt Q92692 32-538) | binds
5 | Zinc finger CCCH-type antiviral protein 1 (from UniProt Q7Z2W4 1-902) | binds
6 | Stromal interaction molecule 1 (from UniProt Q13586 23-685) | binds
7 | Exocyst complex component 4 (from UniProt Q96A65 1-974) | binds
8 | Zinc transporter 6 (from UniProt Q6NXT4 1-461) | binds
9 | EH domain-binding protein 1 (from UniProt Q8NDI1 1-1231) | binds
10 | Rab11 family-interacting protein 2 (from UniProt Q7L804 1-512) | binds
11 | Desmoglein-2 (from UniProt Q14126 50-1118) | binds
12 | Calcium-transporting ATPase type 2 C member 1 (from UniProt P98194 1-919) | binds
13 | Copper-transporting ATPase 1 (from UniProt Q04656 1-1500) | binds
14 | 4F2 cell-surface antigen heavy chain (from UniProt P08195 1-529) | binds
15 | Coxsackievirus and adenovirus receptor (from UniProt P78310 20-365) | binds
16 | Ras-related protein Rab-8A (from UniProt P61006 1-207) | binds
17 | HA-RAB29 (protein, UniProt O14966 1-203) MGSRDHLFKVLVVGDAAVGKTSLVQRYSQDSFSKHYKSTVGVDFALKVLQWSDYEIVRLQLWDIAGQERFTSMTRLYYRDASACVIMFDVTNATTFSNSQRWKQDLDSKLTLPNGEPVPCLLLANKCDLSPWAVSRDQIDRFSKENGFTGWTETSVKENKNINEAMRVLIEKMMRNSTEDIMSLSTQGDYINLQTKSSSWSCC | binds
18 | Dyslexia-associated protein KIAA0319-like protein (protein, UniProt Q8IZA0 1-1049) MEKRLGVKPNPASWILSGYYWQTSAKWLRSLYLFYTCFCFSVLWLSTDASESRCQQGKTQFGVGLRSGGENHLWLLEGTPSLQSCWAACCQDSACHVFWWLEGMCIQADCSRPQSCRAFRTHSSNSMLVFLKKFQTADDLGFLPEDDVPHLLGLGWNWASWRQSPPRAALRPAVSSSDQQSLIRKLQKRGSPSDVVTPIVTQHSKVNDSNELGGLTTSGSAEVHKAITISSPLTTDLTAELSGGPKNVSVQPEISEGLATTPSTQQVKSSEKTQIAVPQPVAPSYSYATPTPQASFQSTSAPYPVIKELVVSAGESVQITLPKNEVQLNAYVLQEPPKGETYTYDWQLITHPRDYSGEMEGKHSQILKLSKLTPGLYEFKVIVEGQNAHGEGYVNVTVKPEPRKNRPPIAIVSPQFQEISLPTTSTVIDGSQSTDDDKIVQYHWEELKGPLREEKISEDTAILKLSKLVPGNYTFSLTVVDSDGATNSTTANLTVNKAVDYPPVANAGPNQVITLPQNSITLFGNQSTDDHGITSYEWSLSPSSKGKVVEMQGVRTPTLQLSAMQEGDYTYQLTVTDTIGQQATAQVTVIVQPENNKPPQADAGPDKELTLPVDSTTLDGSKSSDDQKIISYLWEKTQGPDGVQLENANSSVATVTGLQVGTYVFTLTVKDERNLQSQSSVNVIVKEEINKPPIAKITGNVVITLPTSTAELDGSKSSDDKGIVSYLWTRDEGSPAAGEVLNHSDHHPILFLSNLVEGTYTFHLKVTDAKGESDTDRTTVEVKPDPRKNNLVEIILDINVSQLTERLKGMFIRQIGVLLGVLDSDIIVQKIQPYTEQSTKMVFFVQNEPPHQIFKGHEVAAMLKSELRKQKADFLIFRALEVNTVTCQLNCSDHGHCDSFTKRCICDPFWMENFIKVQLRDGDSNCEWSVLYVIIATFVIVVALGILSWTVICCCKRQKGKPKRKSKYKILDATDQESLELKPTSRAGIKQKGLLLSSSLMHSESELDSDDAIFTWPDREKGKLLHGQNGSVPNGQTPLKARSPREEIL | binds
19 | Rab11 family-interacting protein 1 (protein, UniProt Q6WKZ4 1-1283) MSLMVSAGRGLGAVWSPTHVQVTVLQARGLRAKGPGGTSDAYAVIQVGKEKYATSVSERSLGAPVWREEATFELPSLLSSGPAAAATLQLTVLHRALLGLDKFLGRAEVDLRDLHRDQGRRKTQWYKLKSKPGKKDKERGEIEVDIQFMRNNMTASMFDLSMKDKSRNPFGKLKDKIKGKNKDSGSDTASAIIPSTTPSVDSDDESVVKDKKKKSKIKTLLSKSNLQKTPLSQSMSVLPTSKPEKVLLRPGDFQSQWDEDDNEDESSSASDVMSHKRTASTDLKQLNQVNFTLPKKEGLSFLGGLRSKNDVLSRSNVCINGNHVYLEQPEAKGEIKDSSPSSSPSPKGFRKKHLFSSTENLAAGSWKEPAEGGGLSSDRQLSESSTKDSLKSMTLPSYRPAPLVSGDLRENMAPANSEATKEAKESKKPESRRSSLLSLMTGKKDVAKGSEGENPLTVPGREKEGMLMGVKPGEDASGPAEDLVRRSEKDTAAVVSRQGSSLNLFEDVQITEPEAEPESKSEPRPPISSPRAPQTRAVKPRLEVSPEAQPTARLPSPTDSPSSLPPLPSSSGQASVPSELGHGADTQSSESPSVFSSLSSPIAAPISTSTPIESWPLVDRGQAKSEGPPLLPKAELQTESLTPVPNSGSSALGSLFKQPSFPANKGTEDSLMGRTRETGTEKNTSSLELEESLPEQPETGRQEEELPRFPCKKQDYSPSSGEAQEVPFALSLSSDGAVSPVGELAAGGDRDLESQAGSLVESKARDAAEEVAPPLPMGASVPSIDSMMRKLEEMGLNLRKDQKKTKKRVSFSEQLFTEEAVAGAALLVEGHSSCPQELNPAWSVAGNASDGEPPESPHAEDSERESVTTPGPATCGAPASPADHLLLPSQEESFSEVPMSEASSAKDTPLFRMEGEDALVTQYQSKASDHEGLLSDPLSDLQLVSDFKSPIMADLNLSLPSIPEVASDDERIDQVEDDGDQVEDDGETAKSSTLDIGALSLGLVVPCPERGKGPSGEADRLVLGEGLCDFRLQAPQASVTAPSEQTTEFGIHKPHLGKSSSLDKQLPGPSGGEEEKPMGNGSPSPPPGTSLDNPVPSPSPSEIFPVTHSFPSSAHSDTHHTSTAESQKKATAEGSAGRVENFGKRKPLLQAWVSPSETHPVSAQPGAGTGSAKHRLHPVKPMNAMATKVANCSLGTATIISENLNNEVMMKKYSPSDPAFAYAQLTHDELIQLVLKQKETISKKEFQVRELEDYIDNLLVRVMEETPNILRIPTQVGKKAGKM | binds
20 | Secretory carrier-associated membrane protein 1 (protein, UniProt O15126 1-338) MSDFDSNPFADPDLNNPFKDPSVTQVTRNVPPGLDEYNPFSDSRTPPPGGVKMPNVPNTQPAIMKPTEEHPAYTQIAKEHALAQAELLKRQEELERKAAELDRREREMQNLSQHGRKNNWPPLPSNFPVGPCFYQDFSVDIPVEFQKTVKLMYYLWMFHAVTLFLNIFGCLAWFCVDSARAVDFGLSILWFLLFTPCSFVCWYRPLYGAFRSDSSFRFFVFFFVYICQFAVHVLQAAGFHNWGNCGWISSLTGLNQNIPVGIMMIIIAALFTASAVISLVMFKKVHGLYRTTGASFEKAQQEFATGVMSNKTVQTAAANAASTAASSAAQNAFKGNQI | binds

Results are given in words; binding and its absence hold for the method and conditions named. Binding seen in cells or lysates may run through a third protein. A yes stands for co-enrichment or nearness to the bait. Other partners may have been found. Tags and fused reporters may be left off the sequences shown.
